From article PMC9515611
Results are given in words; binding and its absence hold for the method and conditions named. Binding seen in cells or lysates may run through a third protein. Some results given as binding are weak or reduced against the parent protein; the word gives no strength. Where a sequence is shown, tags or fusion partners need not be part of it. Values belong to the substance of their own block, whether it stands above or below them.

Amino acid sequences for entries named in this document (tags omitted). Residues count along the entry.
UniProt P11021, residues 19-654: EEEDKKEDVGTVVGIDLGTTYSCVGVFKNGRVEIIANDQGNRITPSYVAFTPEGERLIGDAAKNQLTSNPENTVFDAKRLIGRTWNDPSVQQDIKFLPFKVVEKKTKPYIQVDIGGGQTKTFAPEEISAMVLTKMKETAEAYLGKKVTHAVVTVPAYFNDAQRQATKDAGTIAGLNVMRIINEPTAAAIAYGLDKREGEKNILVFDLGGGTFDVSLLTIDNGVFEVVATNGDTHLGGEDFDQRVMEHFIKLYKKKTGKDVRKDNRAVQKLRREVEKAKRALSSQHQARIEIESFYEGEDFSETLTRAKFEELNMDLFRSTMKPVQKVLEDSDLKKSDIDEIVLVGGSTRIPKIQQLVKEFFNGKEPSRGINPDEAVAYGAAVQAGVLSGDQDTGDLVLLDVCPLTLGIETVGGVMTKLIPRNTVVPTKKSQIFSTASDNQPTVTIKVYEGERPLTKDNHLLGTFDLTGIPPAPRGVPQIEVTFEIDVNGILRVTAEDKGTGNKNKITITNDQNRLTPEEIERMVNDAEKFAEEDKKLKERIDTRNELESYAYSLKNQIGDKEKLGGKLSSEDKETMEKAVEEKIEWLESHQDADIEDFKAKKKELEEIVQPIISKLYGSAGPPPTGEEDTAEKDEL

Key:
[1] = biological target: T1, HA-DLC1 (deleted in liver cancer-1) (human) (UniProt Q96QB1); experiment: co-IP; HEK-293T; Flag-tagged full-length GRP78 or truncations with HA-DLC1
T1 sequence: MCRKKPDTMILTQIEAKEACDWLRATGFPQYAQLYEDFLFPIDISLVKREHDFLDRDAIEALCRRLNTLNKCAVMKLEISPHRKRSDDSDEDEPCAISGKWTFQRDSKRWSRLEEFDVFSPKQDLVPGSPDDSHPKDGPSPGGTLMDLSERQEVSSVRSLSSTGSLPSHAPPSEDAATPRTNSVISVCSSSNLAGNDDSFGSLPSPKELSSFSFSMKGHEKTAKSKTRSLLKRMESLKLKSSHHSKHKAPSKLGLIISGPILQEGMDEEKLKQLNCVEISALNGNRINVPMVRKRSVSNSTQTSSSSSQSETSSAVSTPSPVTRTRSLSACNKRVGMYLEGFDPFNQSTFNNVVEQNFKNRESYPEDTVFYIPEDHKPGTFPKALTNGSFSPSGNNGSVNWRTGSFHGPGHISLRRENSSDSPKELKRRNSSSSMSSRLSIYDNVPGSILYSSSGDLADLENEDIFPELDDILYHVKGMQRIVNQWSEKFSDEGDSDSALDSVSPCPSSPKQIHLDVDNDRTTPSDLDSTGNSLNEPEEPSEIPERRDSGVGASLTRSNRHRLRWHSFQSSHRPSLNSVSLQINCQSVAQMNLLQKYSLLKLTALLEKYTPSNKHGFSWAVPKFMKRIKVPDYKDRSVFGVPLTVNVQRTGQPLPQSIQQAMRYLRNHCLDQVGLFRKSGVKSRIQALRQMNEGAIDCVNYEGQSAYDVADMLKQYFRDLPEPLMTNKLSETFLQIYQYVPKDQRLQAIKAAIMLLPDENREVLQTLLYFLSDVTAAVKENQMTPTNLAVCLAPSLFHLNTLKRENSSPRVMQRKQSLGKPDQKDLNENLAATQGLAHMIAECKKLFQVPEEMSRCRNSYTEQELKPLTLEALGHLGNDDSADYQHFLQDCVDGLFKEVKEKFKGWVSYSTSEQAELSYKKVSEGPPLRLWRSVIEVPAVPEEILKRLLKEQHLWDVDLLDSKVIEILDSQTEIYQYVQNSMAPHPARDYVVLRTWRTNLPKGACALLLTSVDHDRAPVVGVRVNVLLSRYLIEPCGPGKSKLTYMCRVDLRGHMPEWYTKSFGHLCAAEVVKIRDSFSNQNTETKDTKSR

[2] = biological target: T2, Flag-MANF (mesencephalic astrocyte-derived neurotrophic factor), expressed in HEK-293T (human) (UniProt P55145); experiment: co-IP; HEK-293T transfected with GRP78-HA and DLC1-Flag or Flag-MANF; whole cell lysate, IP with antibody against Flag, immunoblot with antibody HA
T2 sequence: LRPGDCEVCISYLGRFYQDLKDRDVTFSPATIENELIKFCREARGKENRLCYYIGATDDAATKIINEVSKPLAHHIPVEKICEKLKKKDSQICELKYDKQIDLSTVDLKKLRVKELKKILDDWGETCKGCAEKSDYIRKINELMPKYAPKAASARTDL

[3] = biological target: T3, DLC1-Flag (deleted in liver cancer-1), expressed in HEK-293T (human) (UniProt Q96QB1); experiment: as above
T3 sequence: T1 sequence

[4] = biological target: T2, Flag-MANF (mesencephalic astrocyte-derived neurotrophic factor), expressed in HEK-293T (human); experiment: co-IP; HEK-293T transfected with GRP78-HA, Flag-MANF and an increasing amount of DLC1-Flag
[5] = biological target: T4, DLC1-Flag (deleted in liver cancer-1), exogenous in SW1116 (human) (UniProt Q96QB1); experiment: co-IP; SW1116 cells with exogenous DLC1-Flag or Flag-MANF; endogenous GRP78 detected
T4 sequence: T1 sequence

[6] = biological target: T5, Flag-MANF (mesencephalic astrocyte-derived neurotrophic factor), exogenous in SW1116 (human) (UniProt P55145); experiment: as above
T5 sequence: T2 sequence

binding [1]: binds
Substance: GRP78 full length, tagged with Flag (from UniProt P11021 19-654)

binding [2]: binds
binding [3]: binds
binding [4]: binds
Substance: GRP78-HA (glucose-regulated protein 78 kDa) (from UniProt P11021 19-654)

binding [5]: binds
binding [6]: binds
Substance: glucose-regulated protein 78 kDa (GRP78), endogenous in SW1116 (from UniProt P11021 19-654)
